{"sequences": {"note": "The chains behind the UniProt entries cited, without tags or fusion partners.", "UniProt Q9NZD1": "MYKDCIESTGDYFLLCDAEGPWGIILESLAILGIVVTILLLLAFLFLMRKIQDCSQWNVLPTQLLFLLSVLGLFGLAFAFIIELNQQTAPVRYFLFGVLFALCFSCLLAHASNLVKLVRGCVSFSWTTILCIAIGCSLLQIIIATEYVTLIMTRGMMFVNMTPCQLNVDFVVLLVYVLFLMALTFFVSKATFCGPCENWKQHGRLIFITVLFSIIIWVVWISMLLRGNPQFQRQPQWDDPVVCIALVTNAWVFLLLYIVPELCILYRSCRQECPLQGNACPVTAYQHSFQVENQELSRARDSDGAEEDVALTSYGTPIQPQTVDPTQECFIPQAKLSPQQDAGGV"}, "source": "patent US12281162", "about": "(LANOVA MEDICINES DEVELOPMENT, dated 2025)", "binders": {"B1": {"name": "6-H3L3 (antibody, V domains shown)", "VH": "QVQLVQSGAEVAKPGASVKVSCKASGYTFTTYTMHWVKQAPGQGLEWLGYINPSSGYTNYNQKFKDRVTMTADTSTSTVYMELSSLRSEDTAVYYCASLRSRGYFDYWGQGTLVTVSS", "VL": "DIQMTQSPSFLSTSVGDRVTITCKASQNVGTAVVWYQQKPGKSPKLLIYSASNRYTGVPSRFSGSGSGTEFTLTISSMQPEDFATFFCQQYSSYPYTFGQGTKLEIK", "notes": "humanized 6G10D9, VH v3 x VL v3"}, "B2": {"name": "6-H4L3 (antibody, V domains shown)", "VH": "B1 VH with V20M, M70L, V114L", "VL": "B1 VL", "notes": "humanized 6G10D9, VH v4 x VL v3"}, "B3": {"name": "38A10E9A11 (chimeric) (antibody, V domains shown)", "VH": "QVQLQQSGAELARPGASVKMSCKASGYTFTTYTMHWVKQRPGQGLEWIGYINPSSGYTNYNQKFKDKATLTAGKSSSTAYMQLSSLTSEDSAVYYCASLRSRGYFDYWGRGTTLTVSS", "VL": "DIVMTQSQKFLSTSVGDRVSITCKASQNVGTAVAWYQQKPGQSPKLLIYSASNRYTGVPDRFTGSGSGTDFTLTISNMQSEDLAGYFCQQYSSYPYTFGGGTKLEIK", "notes": "also called 38A9E10A11"}, "B4": {"name": "58F9G10-XI (antibody, V domains shown)", "VH": "EVQLQQSGPELVKTGASVKISCKASGYSFTGYYIHWVKQSHGKSLEWIGYISCYNGATSFNQKFKGKATFTVDTSSSTAYMQFNSLTSEDSAVYYCARTELRGPWFAYWGQGTLVTVSA", "VL": "QTVLTQSPAIMSASPGEKVTMTCSASSSVSYMNWYQQKSGTSPKRWIYDTSKLASGVPARFSGSGSGTSYSLTISSMEAEDAATYYCQQWSNNPLTFGAGTKLELK", "notes": "also called 58F9G10 (chimeric); 58-XI"}, "B5": {"name": "40A5B2 (chimeric) (antibody, V domains shown)", "VH": "EVQLQQSGPELVKPGASVKMSCKASGYTFTRNIMHWVKQKPGQGLEWIGYINPYNAGSKYNEKFKGKATLTSDISSSTAYMELSSLTSEDSAVYYCAREEVYYRYGAWFAYWGHGTLVTVSA", "VL": "DIVLTQSPASLAVSLGQRATISCRASQSVSTSSYSYMHWYQQKPGQPPKLLIKYASNLESGVPARFSGSGSGTDFTLNIHPVEEEDTATYYCQHSWEIPRTFGGGTKLEIK"}, "B6": {"name": "37B9C4-XI (antibody, V domains shown)", "VH": "EVNLEESGGGLVQPGGSMKLSCVASGFTFSDYWMNWVRQSPEKGLEWVAEIRLKSNNYATHYAESVKGRFTISRDDSKSSVYLQMNNLRAEDTGIYYCTRPLLWFRRYYAMDYWGQGTSVTVSS", "VL": "DIQMTQTTSSLSASLGDRITISCSASQGISNYLNWYQQKPDGTVKLLIYYTSSLHSGVPSRFSGSGSGTDYSLTISNLEPADIATYYCQQYSKLPFTFGSGTKLEIK", "notes": "also called 37B9C4 (chimeric); 37-XI"}, "B7": {"name": "34-XI (antibody, V domains shown)", "VH": "EVHLVESGGDLVKPGGSLKLSCAASGFTFSSYGMSWVRQTPDKRLEWVATISSGGSYTYYPDSVKGRFTISRDNAKNTLNLQMSSLKSEDTAMYYCARQGGDAMDYWGQGTSVTVSS", "VL": "DIVLTQSPATLSVTPGDSVSLSCRASQSINNNLHWYQQKSHESPRLLIKYASQSISGIPSRFSGSGSGTDFTLSINSVETEDFGMYFCQQSNSRLTFGAGTKLELK", "notes": "also called 34D3H1 (chimeric)"}, "B8": {"name": "29B2C10 (chimeric) (antibody, V domains shown)", "VH": "EVQLQQSGPELVKPGASMKLSCKASGYSFTGYTMHWVKQSHGENLEWIGLINPYNGGTNYNQKFKGKATLTVDKSSSTAYMELLSLTSEDSAVYYCSRWGLRRAMDYWGQGTSVTVSS", "VL": "DIVMTQSQKFMSTSVGDRVSVTCKASQNVGSNVAWYQQKPGQSPKALIYSASYRYSGVPDRFTGNGSGTDFTLTISNVQSEDLAEYFCQQYYNSPWTFGGGTKLEIK"}, "B9": {"name": "21C3C11B3 (chimeric) (antibody, V domains shown)", "VH": "QVQLQQSGAELVRPGTSVKVSCKASGYAFINYLIEWIKQRPGQGLEWIGMINPGSGGTNYNEKFKDKATLTADKSSSTAYMQLSSLTSDDSAVYFCARNWDVWGQGTTLTVSS", "VL": "DVVMTQSPLSLPVSLGDQASVSCRSSQSLVHSTGNTYLHWYLQKPGQSPKLLIYKVSNRFSGVPDRFSGSGSGTDFTLKISRVEAEDLGVYFCSQSTHVPWTFGGGTKLEIK"}, "B10": {"name": "6G10D9-XI (antibody, V domains shown)", "VH": "B3 VH with I48L, R110Q", "VL": "B3 VL with K9T, L11M, S20R, A34V, P40T, K45R, G85D, Y86F", "notes": "also called 6G10D9 (chimeric); 6G1009-X1"}, "B11": {"name": "2D3C12 (antibody, V domains shown)", "VH": "B9 VH", "VL": "B9 VL", "notes": "murine antibody from hybridoma supernatant"}, "B12": {"name": "34D4A10 (antibody, V domains shown)", "VH": "B9 VH with N31S", "VL": "B9 VL", "notes": "as for B11"}, "B13": {"name": "6G10D9 (antibody, V domains shown)", "VH": "B3 VH with I48L, R110Q", "VL": "B3 VL with K9T, L11M, S20R, A34V, P40T, K45R, G85D, Y86F", "notes": "as for B11"}, "B14": {"name": "38A10E9A11 (antibody, V domains shown)", "VH": "B3 VH", "VL": "B3 VL", "notes": "as for B11"}, "B15": {"name": "14C2A11C6 (antibody, V domains shown)", "VH": "QVHLQQSGAELARPGASVKMSCKASGYTFTTYTMHWVKQRPGQGLEWIGYINPNSAYTNYNQKFKDKATLTADKSSSTAYMQLSSLTSEDSAVYYCARRVLLLRVLDFFDYWGQGTTLTVSS", "VL": "DVQITQSPSYLAASPGETITINCRASKSINKYLTWYQEKPGKTNKLLIYSGSTLQSGIPSRFSGSGSGSDFTLTISSLEPEDFAMYYCQQHNEYPLTFGTGTKLELK", "notes": "murine antibody from hybridoma supernatant; also called 14C2A1106"}, "B16": {"name": "29B2C10 (antibody, V domains shown)", "VH": "B8 VH", "VL": "B8 VL", "notes": "as for B11"}, "B17": {"name": "14F3H2 (antibody, V domains shown)", "VH": "B8 VH with L20I, H35N, E43K, T58I, N59R, S97A", "VL": "B8 VL with S31T, N65S, Y92N, N93S", "notes": "as for B11"}, "B18": {"name": "26E1D12 (antibody, V domains shown)", "VH": "B8 VH with L20I, H35N, E43K, T71A, E82D", "VL": "B8 VL with N65S, Y92N", "notes": "as for B11"}, "B19": {"name": "29A7H11H4C12 (antibody, V domains shown)", "VH": "B8 VH with L20I", "VL": "B8 VL with V15I", "notes": "as for B11"}, "B20": {"name": "21C3C11B3 (antibody, V domains shown)", "VH": "B9 VH", "VL": "B9 VL", "notes": "as for B11"}, "B21": {"name": "34D3H1 (antibody, V domains shown)", "VH": "B7 VH", "VL": "B7 VL", "notes": "as for B11"}, "B22": {"name": "37B9C4 (antibody, V domains shown)", "VH": "B6 VH", "VL": "B6 VL", "notes": "as for B11"}, "B23": {"name": "40A5B2 (antibody, V domains shown)", "VH": "B5 VH", "VL": "B5 VL", "notes": "as for B11"}, "B24": {"name": "58F9G10 (antibody, V domains shown)", "VH": "B4 VH", "VL": "B4 VL", "notes": "as for B11"}}, "note": "Positions count from the first letter of the chain named. Results are given in words; binding and its absence hold for the method and conditions named. Some binding calls cover weakened binding; strength is not graded here.", "data": [{"target": "human G-protein-coupled receptor family C group 5 member D (GPRC5D) (human) (UniProt Q9NZD1)", "assay": "FACS, CHO-K1/human GPRC5D", "values": [{"binder": "B1", "binding": "binds"}, {"binder": "B2", "binding": "binds"}]}, {"target": "human G-protein-coupled receptor family C group 5 member D (GPRC5D) (human) (UniProt Q9NZD1)", "assay": "FACS, NCI-H929 cells", "values": [{"binder": "B1", "binding": "binds"}, {"binder": "B2", "binding": "binds"}]}, {"target": "human G-protein-coupled receptor family C group 5 member D (GPRC5D) (human) (UniProt Q9NZD1)", "assay": "FACS, CHO-K1/GPRC5D", "values": [{"binder": "B1", "binding": "binds"}]}, {"target": "human G-protein-coupled receptor family C group 5 member D (GPRC5D) (human) (UniProt Q9NZD1)", "assay": "FACS, CHO-K1/human GPRC5D, chimeric antibody", "values": [{"binder": "B3", "binding": "binds"}, {"binder": "B4", "binding": "binds"}, {"binder": "B5", "binding": "binds"}, {"binder": "B6", "binding": "binds"}, {"binder": "B7", "binding": "binds"}, {"binder": "B8", "binding": "binds"}, {"binder": "B9", "binding": "binds"}, {"binder": "B10", "binding": "binds"}]}, {"target": "human G-protein-coupled receptor family C group 5 member D (GPRC5D) (human) (UniProt Q9NZD1)", "assay": "FACS, CHO-K1/human GPRC5D, hybridoma supernatant", "values": [{"binder": "B11", "binding": "binds"}, {"binder": "B12", "binding": "binds"}, {"binder": "B13", "binding": "binds"}, {"binder": "B14", "binding": "binds"}, {"binder": "B15", "binding": "binds"}, {"binder": "B16", "binding": "binds"}, {"binder": "B17", "binding": "binds"}, {"binder": "B18", "binding": "binds"}, {"binder": "B19", "binding": "binds"}, {"binder": "B20", "binding": "binds"}, {"binder": "B21", "binding": "binds"}, {"binder": "B22", "binding": "binds"}, {"binder": "B23", "binding": "binds"}, {"binder": "B24", "binding": "binds"}]}]}
